Laboratory results from patent US20170280722A1, “COMPOSITIONS AND METHODS FOR CONTROL OF SAND FLIES AND OTHER BLOOD SUCKING INSECTS” (GENESIS LABORATORIES, INC., priority 2010, published 2017).

Experiment: Consumption of insecticide treated feed by Rattus rattus
Type: in vivo
Conditions: for Consumption Day 1 / Consumption Day 2 / Consumption Day 3 / Consumption after decrease in Fipronil concentration Day 4 / Consumption after decrease in Fipronil concentration Day 5 / Feeding on treated food (palatability): R. rattus; for Consumption after decrease in Fipronil concentration Day 4 / Consumption after decrease in Fipronil concentration Day 5: Fip. 0.015% in chicken feed
[1] = Fip. 0.015% in chicken feed (so in the source), listed as Fip
[2] = Fip. 0.015% in chicken feed (so in the source), listed as Fip.
[3] = R. rattus treatment group 250 ppm

With `O=C(NC(=O)c1c(F)cccc1F)Nc1ccc(Cl)cc1` [diflubenzuron] as the compound, how does the “Mean (±SEM) insecticide consumption” value (R. rattus treatment group 480 ppm) read?
Its value is 19.44 mg ± 0.85.

And the “Consumption Day 1” value (20 g feed offered daily, Diflu. 0.048% in chicken feed)?
Its value is 10 g and 9 g.

And the “Consumption Day 2” value (Diflu. 0.048% in chicken feed)?
Its value is 17 g and 15 g.

And the “Consumption Day 3” value (Diflu. 0.048% in chicken feed)?
Its value is 16 g and 14 g.

What does the source list for `N#Cc1nn(-c2c(Cl)cc(C(F)(F)F)cc2Cl)c(N)c1[S+]([O-])C(F)(F)F` (centres unmarked) [fipronil]?
Mean (±SEM) insecticide consumption (R. rattus treatment group 150 ppm): 5.75 mg ± 0.80; Consumption Day 1 [1]: 5 g; Consumption Day 2 [1]: 5 g; Consumption Day 3 [1]: 1 g; Consumption Day 1 [2]: 9 g; Consumption Day 2 [2]: 3 g; Consumption Day 3 [2]: 2 g; Consumption after decrease in Fipronil concentration Day 4 (listed as Fip): 8 g; Consumption after decrease in Fipronil concentration Day 5 (listed as Fip): 9 g; Consumption after decrease in Fipronil concentration Day 4 (listed as Fip.): 7 g; Consumption after decrease in Fipronil concentration Day 5 (listed as Fip.): 7 g; Feeding on treated food (palatability) (fipronil 0.025% (250 ppm), initial 3 day treatment period): feeding declined dramatically; also recorded: not readily consumed; Feeding on treated food (palatability) (fipronil lowered to 0.015% (150 ppm), 2 extra days): increased dramatically; also recorded: readily consumed

For eprinomectin, which “Mean (±SEM) insecticide consumption” value (R. rattus treatment group 100 ppm) is on record?
Its value is 5.45 mg ± 0.25.

And the “Mean (±SEM) insecticide consumption” value [3]?
The value was 3.95 mg ± 0.25.

What about the “Consumption Day 1” value (Eprino 0.025% in chicken feed) of the same compound?
The value was 10 g and 12 g.

And the “Consumption Day 2” value (Eprino 0.025% in chicken feed)?
The value was 7 g and 9 g.

What about the “Consumption Day 3” value (Eprino 0.025% in chicken feed) of the same compound?
Its value is 5 g and 3 g.

And the “Consumption Day 1” value (Eprino. 0.01% in chicken feed)?
The value was 10 g and 13 g.

What about the “Consumption Day 2” value (Eprino. 0.01% in chicken feed) of the same compound?
The value was 14 g and 17 g.

And the “Consumption Day 3” value (Eprino. 0.01% in chicken feed)?
Its value is 13 g and 12 g.

For ivermectin, which “Mean (±SEM) insecticide consumption” value [3] is on record?
Its value is 6.0 mg ± 0.00.

What about the “Consumption Day 1” value (Iverm. 0.025% in chicken feed) of the same compound?
The value was 9 g.

What about the “Consumption Day 2” value (Iverm. 0.025% in chicken feed) of the same compound?
Its value is 12 g and 9 g.

What about the “Consumption Day 3” value (Iverm. 0.025% in chicken feed) of the same compound?
The value was 7 g and 6 g.

Where “and” joins values, the source holds several entries; their conditions need not be identical. Equal values may be shown once. Entries after “also recorded” stand apart in the source; their conditions may differ.
